Assay results taken from PubChem BioAssay AID2685 (National Center for Advancing Translational Sciences (NCATS), 2010).
The other results are listed elsewhere or left out. The main result of the screen is listed elsewhere. These columns were measured beside it and carry no call. Most of these compounds were active or inconclusive in the main read-out, so they are no random draw. Words in brackets tell the shape of the fitted curve; partial curves, single points and poor fits give uncertain potencies.

Test: qHTS Assay for Lipid Storage Modulators in Drosophila S3 Cells;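 on cell number change: cells counted by Cell Tracker Red CMTPX staining in the red channel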
Conditions: BODIPY lipid droplet fluorescence, 18-24 h; for cell number change: measured here: cell count max response, cells fed with added oleic acid
How it was run: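 Drosophila S3 cells got compounds at several concentrations plus oleic acid (400 uM solution). Laser-scanning cytometry with 488 nm excitation read lipid droplets at 500-530 nm and cells at 575-640 nm. Percent activity was relative to 20 uM Triacsin C.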

[1] = measured here: cell number channel AC50, cells fed with added oleic acid
[2] = measured here: lipid fluorescence (Fed channel) AC50, cells fed with added oleic acid

COc1ccc(/C=C/C(=O)Nc2nnc(C(C)C)s2)cc1OC
cell number change: 36.3% | AC50 [1]: 0.82 µM [rising, partial curve, poor fit]

CC(=O)NS(=O)(=O)c1ccc(NC(=O)/C=C/c2ccccc2Cl)cc1
cell number change: -51.3% | AC50 [1]: 16.4 µM [falling, partial curve]

S=C(c1ccc(-c2ccccc2Cl)o1)N1CCCCC1
cell number change: 6.48% | AC50 [2]: 29.1 µM [falling, single point]

CCNS(=O)(=O)c1ccc(CCC(=O)N2CCC(C)CC2)cc1
cell number change: 3.86%

CCN(CC)CCCNC(=O)C1c2ccccc2Oc2ccccc21
cell number change: 15.9%

Cc1ccc(OCC(=O)NNC(=O)CCC(=O)NCc2ccccc2)cc1
cell number change: -3.45% | AC50 [2]: 23.1 µM [falling, single point]

O=C(COC(=O)/C=C/c1ccco1)Nc1ccccc1
cell number change: 86%

CCN(C(=O)Cn1nc(C(=O)O)c2ccccc2c1=O)C1CCCCC1
AC50 [2]: 0.164 µM [falling, full curve]

COC(=O)c1cccnc1N1CCN(c2ccccc2F)CC1
AC50 [1]: 1.84 µM [rising, partial curve] | AC50 [2]: 0.231 µM [rising, partial curve, poor fit]

Nn1c(SCC(=O)Nc2ccc3c(c2)OCCO3)nnc(CCC(=O)O)c1=O
cell number change: -8.78% | AC50 [2]: 0.731 µM [rising, single point]

CCOc1ccc(N(CC(=O)NCc2ccccc2C)S(C)(=O)=O)cc1
cell number change: -3.41% | AC50 [2]: 7.31 µM [rising, partial curve]

C/C(=N\OC(=O)c1ccc(Cl)c(Cl)c1)c1sc(C)nc1C
cell number change: -31.7% | AC50 [2]: 29.1 µM [falling, single point]

c1ccc(C2=Nc3c(ccc4ccccc34)C(c3ccncc3)=NN2)cc1
cell number change: -27.3% | AC50 [2]: 6.51 µM [falling, single point]

O=C(NCCCn1ccnc1)c1ccc(Cl)c(S(=O)(=O)N2CCOCC2)c1
cell number change: -14.6%

Cc1cc(C(C)(C)C)c(O)c(C(C)(C)C)c1
cell number change: -11.4% | AC50 [2]: 3.26 µM [falling, partial curve]

O=C(Nc1ccc(N2CCOCC2)cc1)c1cccc(-n2cnnc2)c1
cell number change: 11.9% | AC50 [2]: 0.58 µM [falling, single point]

C=CCNc1nc(-c2ccc(O)c(C(N)=O)c2)cs1
cell number change: 12.9% | AC50 [2]: 0.00461 µM [falling, full curve, poor fit]

O=[N+]([O-])c1ncn(Cc2c(Cl)cccc2Cl)n1
cell number change: 7.7% | AC50 [2]: 1.64 µM [falling, partial curve, poor fit]

Cc1ccc(S(=O)(=O)Nc2ccc(S(=O)(=O)Nc3cc(C)nc(C)n3)cc2)cc1
cell number change: -42.3% | AC50 [1]: 4.61 µM [falling, full curve] | AC50 [2]: 4.11 µM [falling, full curve]

Cc1cc(Nc2ccccc2)n(-c2cccc(Cl)c2)n1
AC50 [1]: 1.16 µM [rising, partial curve]

COc1ccc(OCCCN2CCCC(C)C2)cc1 (stereo unspecified)
cell number change: -90.6% | AC50 [1]: 29.1 µM [falling, single point] | AC50 [2]: 18.4 µM [falling, single point]

Cn1nnc2cc(NC(=O)Nc3cccc(Cl)c3)ccc21
AC50 [2]: 20.6 µM [falling, single point]

CCN(CC)S(=O)(=O)c1ccc(N(C)Cc2cccc(OC)c2OC)nc1
cell number change: 8.53%

CC1=NN(c2ccccc2)C(=O)/C1=C\c1cn(-c2ccccc2)nc1C
cell number change: -1.76% | AC50 [1]: 6.51 µM [falling, single point] | AC50 [2]: 0.291 µM [falling, partial curve, poor fit]

Cc1ccc(CCNC(=O)C2CCC(CNc3c(N4CCC(C)CC4)c(=O)c3=O)CC2)cc1 (stereo unspecified)
cell number change: -14.7% | AC50 [2]: 29.1 µM [rising, single point]

Cc1cc(C(=O)CCl)c(C)n1-c1cccc(S(=O)(=O)N2CCOCC2)c1
cell number change: -0.196% | AC50 [1]: 0.58 µM [falling, single point]

CC1CCCCC12NC(=O)N(CC(=O)NC(=O)Nc1ccc3c(c1)OCCO3)C2=O (stereo unspecified)
cell number change: 49.4% | AC50 [1]: 5.17 µM [rising, single point]

CC(OC(=O)c1cnc(Cl)c(Cl)c1)C(=O)NCc1ccccc1 (stereo unspecified)
cell number change: 2.92% | AC50 [2]: 13 µM [rising, partial curve, poor fit]

C/C(NC(=O)c1ccccc1F)=C1\C(=O)C[C@@H]2[C@H]1C2(C)C
cell number change: -18.4%

O=C(O)Cn1c(=O)cnc2ccccc21
cell number change: -11.9%

Cc1onc(-c2ccccc2Cl)c1C(=O)Nc1nnc(-c2ccc(Br)cc2)s1
cell number change: -12.7% | AC50 [2]: 29.1 µM [rising, single point]

COc1cccc(CNC(=O)COC(=O)c2cccc(S(=O)(=O)N3CCCC3)c2)c1
cell number change: -3.1%

CCCCC(=O)Oc1c(S(=O)(=O)c2ccc(C)cc2)c(C)nn1C(C)(C)C
cell number change: -24.4% | AC50 [2]: 20.6 µM [falling, single point]

COCCNCC(=O)Nc1nc(C)cs1
cell number change: 60.9% | AC50 [1]: 29.1 µM [rising, single point]

Nc1c(N(CCC2=CCCCC2)C(=O)COc2ccc(F)cc2)c(=O)[nH]c(=O)n1Cc1ccccc1
cell number change: -66.3% | AC50 [1]: 7.31 µM [falling, partial curve] | AC50 [2]: 3.66 µM [falling, single point]

COc1ccc(CNc2cccc3[nH]c(C(F)(F)F)nc23)cc1
cell number change: -41.7% | AC50 [1]: 25.9 µM [falling, single point] | AC50 [2]: 14.6 µM [falling, partial curve]

COc1ccc(OC)c2sc(NC(=O)CCSc3ccccc3)nc12
cell number change: -1.89% | AC50 [2]: 0.146 µM [falling, full curve, poor fit]

O=C(COc1ccccc1Br)NC(=O)NC1CCCC1
cell number change: 38.2% | AC50 [1]: 18.4 µM [rising, single point]

CC(=O)N(C(C)=O)c1nc(-c2ccccc2)cn1/N=C/c1cccc([N+](=O)[O-])c1
cell number change: -40.6% | AC50 [1]: 2.06 µM [falling, partial curve, poor fit] | AC50 [2]: 0.92 µM [falling, partial curve]

COc1ccccc1/C=C/C(=O)N1CCN(S(=O)(=O)c2cc(C)ccc2C)CC1
cell number change: 21% | AC50 [2]: 0.058 µM [rising, full curve, poor fit]

COc1ccccc1N1CCN(C(=O)C2CCN(C(=O)c3ccccc3Cl)CC2)CC1
AC50 [2]: 6.51 µM [rising, partial curve, poor fit]

COc1cccc(OCCCOc2ccccc2C(C)C)c1
cell number change: -14.6% | AC50 [2]: 6.51 µM [rising, single point]

COC(=O)c1cc(Br)c(=O)n(CCN(C(C)C)C(C)C)c1
cell number change: 12.6% | AC50 [1]: 0.082 µM [rising, full curve] | AC50 [2]: 29.1 µM [falling, single point]

Nc1ccc(C(=O)N/N=C/c2cn(Cc3cccc(F)c3)c3ccccc23)cc1
cell number change: -49% | AC50 [2]: 29.1 µM [falling, single point]

Cc1ccc(C(=O)NCCOc2cccc3cccnc23)cc1Cl
cell number change: 5.39% | AC50 [2]: 1.3 µM [rising, partial curve]

CCCC1=Nc2cc(C(=O)NCCCN3CCN(C)CC3)ccc2Sc2ccccc21
cell number change: -0.763% | AC50 [2]: 0.103 µM [rising, full curve, poor fit]

CCOC(=O)C1CCCN(C(=O)c2cc(-c3ccccc3)on2)C1 (stereo unspecified)
cell number change: 7.98% | AC50 [2]: 2.59 µM [falling, full curve]

CCc1ccc2c(c1)C(=O)c1ccccc1C2=O
cell number change: 15% | AC50 [2]: 4.61 µM [rising, single point]

CCOc1ccc(OCC)c(NC(=O)CN(C)S(=O)(=O)c2cnc[nH]2)c1
cell number change: -4.31% | AC50 [1]: 6.51 µM [rising, partial curve, poor fit]

CCOC(=O)Cc1csc(NC(=O)/C=C/c2cccc(Br)c2)n1
cell number change: -14.2%

O=C(Nc1cccc(Cl)c1)c1cc(S(=O)(=O)NCCc2ccc(Cl)cc2)ccc1F
cell number change: -28.9% | AC50 [2]: 29.1 µM [falling, single point]

CCOc1ccc(NC(=S)N(CCc2c(C)[nH]c3ccccc23)Cc2ccco2)cc1
cell number change: -6.26% | AC50 [2]: 0.517 µM [rising, partial curve, poor fit]

CCOC(=O)C(NCc1ccccc1OC)(NC(C)=O)C(F)(F)F (stereo unspecified)
cell number change: -170% | AC50 [1]: 29.1 µM [falling, single point]

O=[N+]([O-])c1ccc2[nH]c3c(c2c1)CCCC3O (stereo unspecified)
cell number change: 28%

O=C(O)C1CCCN(S(=O)(=O)c2ccc3c(c2)OCCO3)C1 (stereo unspecified)
cell number change: 30.6% | AC50 [1]: 0.0651 µM [rising, full curve, poor fit] | AC50 [2]: 0.231 µM [rising, full curve, poor fit]

CS(=O)(=O)c1ccc(Cl)c(NC(=O)Cc2c(F)cccc2Cl)c1
cell number change: -42.6% | AC50 [2]: 5.17 µM [falling, partial curve]

CCOC(=O)c1[nH]c(C)c(/C(O)=C2\C(=O)C(=O)N(CCN(C)C)C2c2cccc(OC)c2OC)c1C (stereo unspecified)
cell number change: -27.1%

CN(C)S(=O)(=O)c1cccc(NC(=O)CCCc2nc3ccccc3c(=O)[nH]2)c1
cell number change: -3.85% | AC50 [2]: 0.58 µM [falling, single point]

CC(/C=N/NC(=S)Nc1cccc(S(=O)(=O)N(C)C)c1)c1ccccc1 (stereo unspecified)
cell number change: 133% | AC50 [1]: 29.1 µM [rising, single point]

CC(=O)Nc1ccc(S(=O)(=O)Oc2ccc(Br)cc2C(=S)N2CCOCC2)cc1
cell number change: -39.3% | AC50 [1]: 1.84 µM [falling, full curve] | AC50 [2]: 0.164 µM [falling, full curve]

O=C1c2cccc3c([N+](=O)[O-])ccc(c23)C(=O)N1CC1CCCO1 (stereo unspecified)
cell number change: -67.4% | AC50 [2]: 29.1 µM [falling, single point]
